Some of the results follow. Residues, ends and D or L forms follow the SMILES beside them. *: point of attachment. Cbz = O=C(OCc1ccccc1)*
Key:
Assay in all cases: log2 fold change, soluble protein after heating vs DMSO (PISA); higher = thermal stabilisation; K562 cells, 10 uM, 30 min; active = over 0.2 and 3.5 SD of the protein, either way, in both replicates (recomputed)
erlotinib = compound: C#Cc1cccc(Nc2ncnc3cc(OCCOC)c(OCCOC)cc23)c1 [erlotinib]
Summary of the method: (§1)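 Soluble protein was quantified by TMTpro 16plex LC-MS/MS after channel sums were equalised. It was obtained as the supernatant after 21,000xg for 90 min from pooled aliquots of K562 cells (2×10^6 cells/mL, 10 μM compound, 30 min) heated for 3 min across 48°C-58°C and extracted in PBS with 0.5% NP-40 at 4°C. Thermal stability values are relative to control samples and come from duplicates. They are given as log2 fold changes.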

Amino acid sequences for entries named in this document (tags omitted). A change or cut given only in a name is not applied to a line headed by its entry.
UniProt Q96HR9: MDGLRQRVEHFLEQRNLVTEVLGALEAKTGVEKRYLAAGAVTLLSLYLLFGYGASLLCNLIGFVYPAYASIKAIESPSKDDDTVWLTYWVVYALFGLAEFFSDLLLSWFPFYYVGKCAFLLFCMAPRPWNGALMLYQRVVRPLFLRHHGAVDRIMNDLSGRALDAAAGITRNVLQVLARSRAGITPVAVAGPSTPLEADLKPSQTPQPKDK
UniProt Q9NWS8: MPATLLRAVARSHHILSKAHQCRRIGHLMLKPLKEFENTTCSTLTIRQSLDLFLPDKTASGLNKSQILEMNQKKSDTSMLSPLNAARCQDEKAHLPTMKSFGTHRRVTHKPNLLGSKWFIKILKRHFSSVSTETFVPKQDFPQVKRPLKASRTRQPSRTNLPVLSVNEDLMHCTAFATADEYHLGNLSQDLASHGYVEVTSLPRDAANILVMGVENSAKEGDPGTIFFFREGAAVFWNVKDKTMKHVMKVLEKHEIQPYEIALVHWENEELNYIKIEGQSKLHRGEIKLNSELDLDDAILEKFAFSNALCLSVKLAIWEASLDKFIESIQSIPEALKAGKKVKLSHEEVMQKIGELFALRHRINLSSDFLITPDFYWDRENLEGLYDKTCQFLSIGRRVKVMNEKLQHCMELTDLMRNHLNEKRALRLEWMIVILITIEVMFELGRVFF
UniProt P84095: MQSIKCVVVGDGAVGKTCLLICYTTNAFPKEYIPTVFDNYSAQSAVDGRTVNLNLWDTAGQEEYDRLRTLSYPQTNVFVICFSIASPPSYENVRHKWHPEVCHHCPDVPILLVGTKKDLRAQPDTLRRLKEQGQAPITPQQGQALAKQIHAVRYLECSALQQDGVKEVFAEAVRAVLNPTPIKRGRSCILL
UniProt Q9HBH5: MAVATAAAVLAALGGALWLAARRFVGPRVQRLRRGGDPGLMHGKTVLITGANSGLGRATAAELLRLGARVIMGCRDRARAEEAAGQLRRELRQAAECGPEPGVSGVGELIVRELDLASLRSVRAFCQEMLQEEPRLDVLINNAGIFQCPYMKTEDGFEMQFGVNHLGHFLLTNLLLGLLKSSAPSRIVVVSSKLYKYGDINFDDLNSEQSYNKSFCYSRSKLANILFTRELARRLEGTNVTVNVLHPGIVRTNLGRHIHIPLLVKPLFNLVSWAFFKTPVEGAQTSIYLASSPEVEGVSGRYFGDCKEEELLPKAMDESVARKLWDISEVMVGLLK
UniProt Q969G6: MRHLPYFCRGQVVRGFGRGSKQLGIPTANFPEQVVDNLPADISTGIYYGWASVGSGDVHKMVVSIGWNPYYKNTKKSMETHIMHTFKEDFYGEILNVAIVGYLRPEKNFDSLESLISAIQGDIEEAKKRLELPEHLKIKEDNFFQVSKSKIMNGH
UniProt Q9BTD8: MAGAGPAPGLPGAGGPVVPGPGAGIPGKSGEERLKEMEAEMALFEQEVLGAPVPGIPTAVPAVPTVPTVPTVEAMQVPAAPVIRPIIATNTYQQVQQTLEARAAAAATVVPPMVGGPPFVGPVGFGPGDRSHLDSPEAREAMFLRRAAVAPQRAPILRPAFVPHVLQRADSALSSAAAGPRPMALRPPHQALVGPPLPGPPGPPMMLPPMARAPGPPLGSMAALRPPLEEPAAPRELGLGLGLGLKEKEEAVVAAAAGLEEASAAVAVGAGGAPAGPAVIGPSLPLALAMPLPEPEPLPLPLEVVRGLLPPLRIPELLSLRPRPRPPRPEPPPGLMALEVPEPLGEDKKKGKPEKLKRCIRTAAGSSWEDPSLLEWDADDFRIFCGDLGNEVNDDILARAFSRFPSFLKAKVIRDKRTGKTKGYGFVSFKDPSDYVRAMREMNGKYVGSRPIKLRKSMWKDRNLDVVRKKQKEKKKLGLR
UniProt A6NED2: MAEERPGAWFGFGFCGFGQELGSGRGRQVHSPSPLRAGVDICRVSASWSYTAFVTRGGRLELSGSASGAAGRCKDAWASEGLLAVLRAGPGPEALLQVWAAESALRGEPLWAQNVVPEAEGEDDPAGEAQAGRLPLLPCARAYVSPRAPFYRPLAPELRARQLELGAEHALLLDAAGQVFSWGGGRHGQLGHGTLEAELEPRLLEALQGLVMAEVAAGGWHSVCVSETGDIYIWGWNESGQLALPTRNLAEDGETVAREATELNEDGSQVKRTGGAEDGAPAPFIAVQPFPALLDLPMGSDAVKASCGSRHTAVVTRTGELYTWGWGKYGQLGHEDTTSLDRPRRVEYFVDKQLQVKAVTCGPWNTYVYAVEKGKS
UniProt P52758: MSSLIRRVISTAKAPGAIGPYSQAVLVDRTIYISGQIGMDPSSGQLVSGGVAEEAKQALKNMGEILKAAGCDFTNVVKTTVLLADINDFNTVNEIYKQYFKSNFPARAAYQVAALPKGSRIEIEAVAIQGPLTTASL
UniProt Q9Y3B8: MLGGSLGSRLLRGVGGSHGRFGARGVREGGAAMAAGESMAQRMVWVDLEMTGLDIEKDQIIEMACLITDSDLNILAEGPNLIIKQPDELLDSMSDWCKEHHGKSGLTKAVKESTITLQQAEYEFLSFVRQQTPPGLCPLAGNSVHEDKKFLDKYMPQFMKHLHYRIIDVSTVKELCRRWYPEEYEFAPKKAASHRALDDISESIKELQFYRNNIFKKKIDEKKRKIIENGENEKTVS
UniProt P22670: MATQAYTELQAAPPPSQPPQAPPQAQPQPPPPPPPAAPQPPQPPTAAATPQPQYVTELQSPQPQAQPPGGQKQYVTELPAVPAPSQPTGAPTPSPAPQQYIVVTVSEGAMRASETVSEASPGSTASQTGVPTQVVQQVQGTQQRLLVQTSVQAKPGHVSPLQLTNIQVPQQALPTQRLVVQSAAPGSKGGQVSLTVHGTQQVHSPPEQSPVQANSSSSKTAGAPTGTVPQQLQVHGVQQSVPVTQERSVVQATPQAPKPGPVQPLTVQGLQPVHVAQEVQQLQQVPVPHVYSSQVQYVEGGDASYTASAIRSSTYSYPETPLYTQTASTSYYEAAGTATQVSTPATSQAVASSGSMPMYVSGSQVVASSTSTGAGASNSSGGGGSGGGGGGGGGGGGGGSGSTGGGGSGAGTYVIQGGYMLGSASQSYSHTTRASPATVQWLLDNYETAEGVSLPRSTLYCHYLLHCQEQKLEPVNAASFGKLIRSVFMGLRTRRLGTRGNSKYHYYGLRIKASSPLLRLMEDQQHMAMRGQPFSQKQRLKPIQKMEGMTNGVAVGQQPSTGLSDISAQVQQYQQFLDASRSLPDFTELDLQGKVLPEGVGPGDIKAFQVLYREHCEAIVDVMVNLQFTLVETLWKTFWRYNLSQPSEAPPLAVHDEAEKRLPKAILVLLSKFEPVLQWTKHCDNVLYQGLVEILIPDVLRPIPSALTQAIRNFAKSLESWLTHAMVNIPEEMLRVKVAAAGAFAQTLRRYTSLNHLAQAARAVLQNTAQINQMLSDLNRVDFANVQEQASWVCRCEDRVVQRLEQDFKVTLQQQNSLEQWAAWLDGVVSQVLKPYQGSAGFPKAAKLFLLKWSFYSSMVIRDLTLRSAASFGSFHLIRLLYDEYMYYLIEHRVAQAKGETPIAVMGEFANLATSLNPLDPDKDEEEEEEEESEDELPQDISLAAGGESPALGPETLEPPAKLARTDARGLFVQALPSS
UniProt Q13546: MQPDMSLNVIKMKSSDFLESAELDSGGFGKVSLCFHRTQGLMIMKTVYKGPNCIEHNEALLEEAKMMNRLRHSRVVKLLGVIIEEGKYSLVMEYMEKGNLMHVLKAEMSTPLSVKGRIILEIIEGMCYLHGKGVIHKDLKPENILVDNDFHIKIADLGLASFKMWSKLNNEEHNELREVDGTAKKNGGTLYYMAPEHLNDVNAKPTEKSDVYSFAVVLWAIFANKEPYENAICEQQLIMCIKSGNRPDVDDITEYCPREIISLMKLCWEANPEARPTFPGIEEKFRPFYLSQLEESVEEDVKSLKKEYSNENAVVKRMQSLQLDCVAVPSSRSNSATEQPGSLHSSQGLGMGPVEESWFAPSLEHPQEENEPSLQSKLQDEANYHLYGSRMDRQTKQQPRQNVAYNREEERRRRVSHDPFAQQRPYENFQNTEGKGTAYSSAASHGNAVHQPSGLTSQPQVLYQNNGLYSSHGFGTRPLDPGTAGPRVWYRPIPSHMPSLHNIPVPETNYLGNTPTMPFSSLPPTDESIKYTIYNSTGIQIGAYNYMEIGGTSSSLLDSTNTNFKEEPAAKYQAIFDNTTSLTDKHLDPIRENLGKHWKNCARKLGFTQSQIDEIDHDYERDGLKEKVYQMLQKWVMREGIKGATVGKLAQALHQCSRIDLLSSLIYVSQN
UniProt Q14498: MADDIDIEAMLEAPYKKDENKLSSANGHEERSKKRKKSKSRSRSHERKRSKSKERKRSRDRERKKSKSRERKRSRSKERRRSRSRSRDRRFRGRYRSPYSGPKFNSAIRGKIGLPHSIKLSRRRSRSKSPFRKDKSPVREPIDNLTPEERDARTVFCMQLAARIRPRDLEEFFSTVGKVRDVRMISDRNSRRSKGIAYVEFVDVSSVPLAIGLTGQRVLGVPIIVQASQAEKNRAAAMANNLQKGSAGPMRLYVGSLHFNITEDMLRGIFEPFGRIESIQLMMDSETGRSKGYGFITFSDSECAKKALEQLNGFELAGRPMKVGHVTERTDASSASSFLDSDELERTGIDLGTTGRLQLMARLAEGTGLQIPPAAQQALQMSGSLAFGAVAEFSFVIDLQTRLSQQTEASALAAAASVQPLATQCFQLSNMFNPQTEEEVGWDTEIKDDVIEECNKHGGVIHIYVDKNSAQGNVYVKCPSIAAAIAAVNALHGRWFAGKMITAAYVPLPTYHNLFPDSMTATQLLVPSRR
UniProt Q9Y508: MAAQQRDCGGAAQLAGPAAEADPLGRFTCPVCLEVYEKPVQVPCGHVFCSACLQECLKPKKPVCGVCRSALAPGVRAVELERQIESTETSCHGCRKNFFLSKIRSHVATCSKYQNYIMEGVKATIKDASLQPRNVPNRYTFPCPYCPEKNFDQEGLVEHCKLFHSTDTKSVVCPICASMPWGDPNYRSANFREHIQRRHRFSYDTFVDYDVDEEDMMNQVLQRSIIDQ
UniProt P08134, whole entry, looked up: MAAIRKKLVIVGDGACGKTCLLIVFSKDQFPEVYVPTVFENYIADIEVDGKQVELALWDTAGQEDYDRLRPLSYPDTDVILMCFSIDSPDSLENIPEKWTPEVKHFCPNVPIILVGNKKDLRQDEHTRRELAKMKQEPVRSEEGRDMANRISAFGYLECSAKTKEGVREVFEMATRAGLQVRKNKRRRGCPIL
UniProt Q00765: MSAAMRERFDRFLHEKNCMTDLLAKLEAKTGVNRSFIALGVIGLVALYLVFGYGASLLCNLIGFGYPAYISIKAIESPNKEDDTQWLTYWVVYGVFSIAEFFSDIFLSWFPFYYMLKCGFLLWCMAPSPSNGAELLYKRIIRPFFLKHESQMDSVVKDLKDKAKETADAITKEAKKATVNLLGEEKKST
UniProt Q9Y2P8: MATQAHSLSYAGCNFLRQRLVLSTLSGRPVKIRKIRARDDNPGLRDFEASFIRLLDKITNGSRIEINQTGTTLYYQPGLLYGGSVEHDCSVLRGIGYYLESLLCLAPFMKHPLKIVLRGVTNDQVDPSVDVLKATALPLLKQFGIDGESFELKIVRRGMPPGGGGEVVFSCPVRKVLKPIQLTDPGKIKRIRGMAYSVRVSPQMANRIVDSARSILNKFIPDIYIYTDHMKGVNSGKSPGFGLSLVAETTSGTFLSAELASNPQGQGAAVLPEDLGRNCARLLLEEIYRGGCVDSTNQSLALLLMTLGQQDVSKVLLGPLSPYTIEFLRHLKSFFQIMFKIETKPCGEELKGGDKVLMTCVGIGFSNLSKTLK

[1] = compound: C/C(=N\NC(=O)C1=CC(=CC=C1)S(=O)(=O)N2CCOCC2)/C3=C(C=CC(=C3)Cl)O
Summary of the method: as §1

[2] = compound: C1=CC(=C(C=C1Cl)C2=NC3=NC=CN=C3C(=N2)NC4=CC=NC=C4)F
Summary of the method: as §1

[3] = compound: C1=CC(=CC=C1C2=NC3=C(N2)C=C(C=C3)C(=O)N)OC4=CC=C(C=C4)Cl
Summary of the method: as §1

[4] = compound: C1=CC2=C(C=CC(=C2)/C=C\3/C(=O)NC(=NCC4=CC=CS4)S3)N=C1
Summary of the method: as §1

[5] = compound: C1=CC2=NC=CN=C2C=C1/C=C/3\C(=O)NC(=O)S3
Summary of the method: as §1

[6] = compound: C1=CC=C(C=C1)C2=NC(=C(N2)C3=CC=NC=C3)C4=CC(=C(C=C4)Cl)O
Summary of the method: as §1

[7] = compound: C1=CC=C2C(=C1)C3=NNC4=CC=CC(=C43)C2=O
Summary of the method: as §1

[8] = compound: C1CCN(C1)C(=O)NC2=CC=CC(=C2)NC3=NC=C(C(=N3)NCCC4=CN=CN4)Br
Summary of the method: as §1

[9] = compound: C1CN(CCC1(CC2=CC=C(C=C2)Cl)N)C3=NC=NC4=C3C=CN4
Summary of the method: as §1

IRAK-1-4 Inhibitor I = compound: C1COCCN1CCN2C3=CC=CC=C3N=C2NC(=O)C4=CC(=CC=C4)[N+](=O)[O-] [IRAK-1-4 Inhibitor I]
Summary of the method: as §1

ibrutinib = compound: C=CC(=O)N1CCC[C@@H](n2nc(-c3ccc(Oc4ccccc4)cc3)c3c(N)ncnc32)C1 [ibrutinib]
Summary of the method: as §1

[10] = compound: CC(=O)c1cnc2ccc(-c3cc(Cl)c(O)c(Cl)c3)nc2c1N[C@H]1CC[C@H](CN(C)C)CC1
Summary of the method: as §1

ralimetinib = compound: CC(C)(C)Cn1c(N)nc2ccc(-c3[nH]c(C(C)(C)C)nc3-c3ccc(F)cc3)nc21 [ralimetinib]
Summary of the method: as §1

[11] = compound: CC(C)(O)CC(=O)NCCn1ccc2ncnc(Nc3ccc(Oc4cccc(C(F)(F)F)c4)c(Cl)c3)c21
Summary of the method: as §1

[12] = compound: CC(C)C1=C2N=C(C=C(N2N=C1)NCC3=CC=CC=C3)NCCCCCCN
Summary of the method: as §1

[13] = compound: CC(C)C[C@@H](C=O)NC(=O)[C@H](CC(C)C)NC(=O)[C@H](CC(C)C)NC(=O)OCc1ccccc1
Summary of the method: as §1

pinometostat = compound: CC(C)N(C[C@H]1O[C@@H](n2cnc3c(N)ncnc32)[C@H](O)[C@@H]1O)[C@H]1C[C@@H](CCc2nc3cc(C(C)(C)C)ccc3[nH]2)C1 [pinometostat]
Summary of the method: as §1

[14] = compound: CC1=C(C(CC(=O)N1)C2=CC=C(C=C2)C(F)(F)F)C(=O)NC3=C(C=C4C(=C3)C=NN4)F
Summary of the method: as §1

[15] = compound: CC1=C(C2=C(C=C1)C(=O)C3=CC=CC=C3N2CCCN)C
Summary of the method: as §1

Measured: log2 fold change

REEP6 (UniProt Q96HR9)
inactive: erlotinib 0.036 | [1] 0.064 | [2] 0.003 | [3] -0.023 | [4] 0.031 | [5] 0.108 | [6] 0.113 | [7] -0.04 | [8] -0.116 | [9] 0.031 | IRAK-1-4 Inhibitor I 0 | ibrutinib -0.027 | [10] 0.012 | ralimetinib -0.115 | [11] 0.05 | [12] 0.024 | [13] -0.019 | pinometostat -0.005 | [14] -0.024 | [15] 0.032

RMND1 (UniProt Q9NWS8)
inactive: erlotinib 0.029 | [1] 0.117 | [2] 0.036 | [3] 0.008 | [4] 0.026 | [5] 0 | [6] -0.023 | [7] -0.041 | [8] 0.026 | [9] 0.009 | IRAK-1-4 Inhibitor I 0.033 | ibrutinib 0.019 | [10] 0.035 | ralimetinib -0.016 | [11] -0.059 | [12] -0.01 | [13] 0.016 | pinometostat -0.026 | [14] -0.054 | [15] 0.027

RHOG (UniProt P84095)
inactive: erlotinib 0.022 | [1] -0.02 | [2] 0.015 | [3] -0.003 | [4] 0.041 | [5] 0.008 | [6] 0.061 | [7] -0.013 | [8] -0.044 | [9] 0.032 | IRAK-1-4 Inhibitor I 0.078 | ibrutinib 0.003 | [10] 0.027 | ralimetinib -0.009 | [11] 0.018 | [12] 0.079 | [13] -0.06 | pinometostat -0.019 | [14] -0.022 | [15] 0.067

RDH14 (UniProt Q9HBH5)
inactive: erlotinib -0.013 | [1] 0.024 | [2] -0.031 | [3] 0.162 | [4] -0.006 | [5] 0.019 | [6] 0.112 | [7] 0.103 | [8] -0.06 | [9] 0.086 | IRAK-1-4 Inhibitor I 0.015 | ibrutinib -0.01 | [10] -0.039 | ralimetinib 0.069 | [11] 0.267 | [12] -0.055 | [13] -0.04 | pinometostat -0.054 | [14] -0.077 | [15] 0.073

RFK (UniProt Q969G6)
inactive: erlotinib -0.034 | [1] -0.023 | [2] -0.026 | [3] 0 | [4] -0.055 | [5] 0.02 | [6] 0.046 | [7] 0.064 | [8] -0.01 | [9] 0.045 | IRAK-1-4 Inhibitor I 0.02 | ibrutinib -0.012 | [10] 0.112 | ralimetinib -0.045 | [11] 0.031 | [12] 0.078 | [13] -0.06 | pinometostat -0.064 | [14] -0.006 | [15] 0.039

RBM42 (UniProt Q9BTD8)
inactive: erlotinib -0.037 | [1] -0.049 | [2] -0.241 | [3] 0.054 | [4] -0.045 | [5] 0.012 | [6] 0.054 | [7] -0.004 | [8] -0.003 | [9] -0.112 | IRAK-1-4 Inhibitor I -0.048 | ibrutinib 0.05 | [10] 0.052 | ralimetinib 0.129 | [11] 0.006 | [12] -0.032 | [13] 0.071 | pinometostat 0.022 | [14] 0.039 | [15] -0.174

RCCD1 (UniProt A6NED2)
inactive: erlotinib 0.052 | [1] -0.04 | [2] 0.053 | [3] -0.056 | [4] -0.018 | [5] 0.023 | [6] 0.004 | [7] -0.009 | [8] 0.065 | [9] 0.159 | IRAK-1-4 Inhibitor I -0.038 | ibrutinib 0.026 | [10] 0.047 | ralimetinib -0.015 | [11] -0.037 | [12] 0.031 | [13] 0.007 | pinometostat 0.01 | [14] -0.021 | [15] 0.016

RIDA (UniProt P52758)
inactive: erlotinib -0.027 | [1] 0.04 | [2] 0.073 | [3] 0.002 | [4] 0.007 | [5] 0.042 | [6] 0.041 | [7] -0.049 | [8] -0.001 | [9] 0.046 | IRAK-1-4 Inhibitor I 0.062 | ibrutinib 0.034 | [10] 0.046 | ralimetinib -0.008 | [11] -0.006 | [12] 0.062 | [13] -0.044 | pinometostat -0.024 | [14] 0.052 | [15] 0.046

REXO2 (UniProt Q9Y3B8)
inactive: erlotinib -0.002 | [1] 0.024 | [2] 0.013 | [3] 0.03 | [4] 0.026 | [5] 0.013 | [6] 0.013 | [7] 0.022 | [8] 0.027 | [9] 0.035 | IRAK-1-4 Inhibitor I 0.036 | ibrutinib 0.011 | [10] 0.015 | ralimetinib -0.043 | [11] 0.03 | [12] 0.068 | [13] 0.016 | pinometostat -0.047 | [14] 0.008 | [15] 0.006

RFX1 (UniProt P22670)
inactive: erlotinib -0.053 | [1] 0.05 | [2] 0.117 | [3] 0.01 | [4] -0.015 | [5] 0.042 | [6] -0.063 | [7] 0.03 | [8] -0.018 | [9] -0.03 | IRAK-1-4 Inhibitor I 0.008 | ibrutinib -0.029 | [10] 0 | ralimetinib -0.05 | [11] -0.077 | [12] 0.044 | [13] 0.014 | pinometostat -0.038 | [14] 0.017 | [15] 0.015

Two consecutive records out of the list so far:
RBM42 (UniProt Q9BTD8)
inactive: erlotinib -0.037 | [1] -0.049 | [2] -0.241 | [3] 0.054 | [4] -0.045 | [5] 0.012 | [6] 0.054 | [7] -0.004 | [8] -0.003 | [9] -0.112 | IRAK-1-4 Inhibitor I -0.048 | ibrutinib 0.05 | [10] 0.052 | ralimetinib 0.129 | [11] 0.006 | [12] -0.032 | [13] 0.071 | pinometostat 0.022 | [14] 0.039 | [15] -0.174

RCCD1 (UniProt A6NED2)
inactive: erlotinib 0.052 | [1] -0.04 | [2] 0.053 | [3] -0.056 | [4] -0.018 | [5] 0.023 | [6] 0.004 | [7] -0.009 | [8] 0.065 | [9] 0.159 | IRAK-1-4 Inhibitor I -0.038 | ibrutinib 0.026 | [10] 0.047 | ralimetinib -0.015 | [11] -0.037 | [12] 0.031 | [13] 0.007 | pinometostat 0.01 | [14] -0.021 | [15] 0.016

More entries.

RIPK1 (UniProt Q13546)
inactive: erlotinib 0.013 | [1] -0.008 | [2] -0.028 | [3] 0 | [4] 0.068 | [5] -0.016 | [6] 0.004 | [7] 0.219 | [8] 0.002 | [9] -0.015 | IRAK-1-4 Inhibitor I -0.104 | ibrutinib -0.081 | [10] -0.201 | ralimetinib 0.195 | [11] -0.023 | [12] -0.23 | [13] 0.14 | pinometostat 0.123 | [15] 0.056

RBM39 (UniProt Q14498)
inactive: erlotinib 0.087 | [1] 0.074 | [2] 0.013 | [3] -0.028 | [4] -0.021 | [5] -0.052 | [6] -0.022 | [7] -0.168 | [8] -0.071 | [9] -0.232 | IRAK-1-4 Inhibitor I -0.193 | ibrutinib 0 | ralimetinib 0.044 | [11] -0.028 | [12] -0.267 | [13] 0.043 | pinometostat 0.042 | [15] 0.104
active: [10] -0.497

RNF114 (UniProt Q9Y508)
inactive: erlotinib 0.02 | [1] 0.036 | [2] 0.048 | [3] -0.048 | [4] -0.001 | [5] 0.019 | [6] 0.005 | [7] -0.03 | [8] -0.014 | [9] 0.025 | IRAK-1-4 Inhibitor I 0.025 | ibrutinib 0.027 | [10] 0 | ralimetinib -0.069 | [11] -0.027 | [12] 0.019 | [13] -0.033 | pinometostat -0.023 | [14] 0.09 | [15] -0.007

RHOC (UniProt P08134)
inactive: erlotinib -0.042 | [1] -0.019 | [2] 0.02 | [3] 0.022 | [4] -0.009 | [5] 0.016 | [6] 0.026 | [7] -0.017 | [8] -0.031 | [9] 0.04 | IRAK-1-4 Inhibitor I 0.054 | ibrutinib 0.015 | [10] 0.006 | ralimetinib -0.032 | [11] 0.039 | [12] 0.077 | [13] -0.054 | pinometostat -0.032 | [14] 0.013 | [15] 0.054

REEP5 (UniProt Q00765)
inactive: erlotinib 0.02 | [1] -0.136 | [2] -0.026 | [3] -0.028 | [4] -0.006 | [5] 0.002 | [6] -0.033 | [7] 0.031 | [8] 0.01 | [9] 0.054 | IRAK-1-4 Inhibitor I 0.086 | ibrutinib 0.011 | [10] -0.078 | ralimetinib 0.057 | [11] 0.054 | [12] 0.1 | [13] 0.071 | pinometostat -0.06 | [14] 0.022 | [15] 0.057

RCL1 (UniProt Q9Y2P8)
inactive: erlotinib -0.144 | [1] -0.098 | [2] -0.399 | [3] 0.015 | [4] -0.064 | [5] -0.015 | [6] -0.003 | [7] 0.086 | [8] 0.069 | [9] -0.168 | IRAK-1-4 Inhibitor I -0.047 | ibrutinib 0.086 | [10] 0.066 | ralimetinib 0.165 | [11] 0 | [12] -0.033 | [13] 0.094 | pinometostat 0.216 | [14] -0.002 | [15] -0.3
